Experimental findings from PMC7898959, “Identification of an amino-terminus determinant critical for ryanodine receptor/Ca^2+ release channel function” (Cardiovascular Research, 2020) are described below.

These are yes or no findings as the source states them, for the method shown. For part of these data: In cells and extracts the contact can be indirect. Some entries that bind do so weakly or less than the wild type.

Experiment [1] has as its target NT^β13–β14/4Ala (RyR2 residues 1–906, residues 240–243 substituted by alanine) (human) (UniProt Q92736). As to the kind of experiment: cross-linking; HEK293 cell homogenate (20 μg) with glutaraldehyde (0.0025% or 260 μmol/L) for 0 min to 1 h under reducing (10 mM DTT) conditions; SDS-PAGE and blot with Ab^cMyc; tetramer formation T = ODT/(ODT + ODM) × 100 by densitometry.

Experiment [2] concerns the target full-length human RyR2^R176Q (human) (UniProt Q92736). As to the kind of experiment: sucrose density gradient centrifugation; CHAPS-solubilized HEK293 microsomes on a continuous 5–40% sucrose gradient, 100 000 × g for 16 h at 4°C; fractions blotted with RyR2 Ab^1093.
Experiment [3] addresses full-length human RyR2^Δβ8–β9 (amino acids 167–178 removed) (human) (UniProt Q92736). The description is as above.
For experiment [4], the target named is wild-type RyR2 N-terminus (NT, residues 1–906) tagged with the cMyc epitope (human) (UniProt Q92736). The experiment in a line: cross-linking; HEK293 cell homogenate (20 μg) with glutaraldehyde (0.0025% or 260 μmol/L) for 0 min to 1 h under reducing (10 mM DTT) conditions; SDS-PAGE and blot with Ab^cMyc; tetramer formation T = ODT/(ODT + ODM) × 100 by densitometry.

For experiment [5], the target named is HA-RyR2-CT (RyR2 C-terminal fragment, residues 3529–4967, N-terminal HA epitope tag) (human) (UniProt Q92736). As to the kind of experiment: co-IP; HEK293 cells co-expressing HA-RyR2-CT and cMyc-NT constructs; CHAPS-solubilized lysate (20 mM Tris, 150 mM NaCl, 0.5% CHAPS, pH 7.4), IP with Ab^HA on protein A sepharose at 4°C, blot with Ab^cMyc; in 1 mM EGTA or 100 μM CaCl2; non-immune rabbit IgG as negative control.

The target of experiment [6] is NT^(E173A + K174A) (RyR2 residues 1–906) (human) (UniProt Q92736). The experiment in a line: cross-linking; HEK293 cell homogenate (20 μg) with glutaraldehyde (0.0025% or 260 μmol/L) for 0 min to 1 h under reducing (10 mM DTT) conditions; SDS-PAGE and blot with Ab^cMyc; tetramer formation T = ODT/(ODT + ODM) × 100 by densitometry.
For experiment [7], the target named is NT^(K167A + Q168A) (RyR2 residues 1–906) (human) (UniProt Q92736). The experiment is described as above.

As to “NT^β13–β14/4Ala (RyR2 residues 1–906, residues 240–243 substituted by alanine) (from UniProt Q92736 1-906) (domain or fragment)”, the binding entry in experiment [1] is reported as “binds”.

Take “full-length human RyR2^R176Q (from UniProt Q92736 1-4967)”: in experiment [2], the binding result is recorded as “binds”.

Turning to “full-length human RyR2^Δβ8–β9 (amino acids 167–178 removed) (from UniProt Q92736 1-4967)”, the binding result in experiment [3] is “binds weakly”.

B1: wild-type RyR2 N-terminus (NT, residues 1–906) tagged with the cMyc epitope (domain or fragment, human, UniProt Q92736 1-906, looked up)
chain: MADGGEGEDEIQFLRTDDEVVLQCTATIHKEQQKLCLAAEGFGNRLCFLESTSNSKNVPPDLSICTFVLEQSLSVRALQEMLANTVEKSEGQVDVEKWKFMMKTAQGGGHRTLLYGHAILLRHSYSGMYLCCLSTSRSSTDKLAFDVGLQEDTTGEACWWTIHPASKQRSEGEKVRVGDDLILVSVSSERYLHLSYGNGSLHVDAAFQQTLWSVAPISSGSEAAQGYLIGGDVLRLLHGHMDECLTVPSGEHGEEQRRTVHYEGGAVSVHARSLWRLETLRVAWSGSHIRWGQPFRLRHVTTGKYLSLMEDKNLLLMDKEKADVKSTAFTFRSSKEKLDVGVRKEVDGMGTSEIKYGDSVCYIQHVDTGLWLTYQSVDVKSVRMGSIQRKAIMHHEGHMDDGISLSRSQHEESRTARVIRSTVFLFNRFIRGLDALSKKAKASTVDLPIESVSLSLQDLIGYFHPPDEHLEHEDKQNRLRALKNRQNLFQEEGMINLVLECIDRLHVYSSAAHFADVAGREAGESWKSILNSLYELLAALIRGNRKNCAQFSGSLDWLISRLERLEASSGILEVLHCVLVESPEALNIIKEGHIKSIISLLDKHGRNHKVLDVLCSLCVCHGVAVRSNQHLICDNLLPGRDLLLQTRLVNHVSSMRPNIFLGVSEGSAQYKKWYYELMVDHTEPFVTAEATHLRVGWASTEGYSPYPGGGEEWGGNGVGDDLFSYGFDGLHLWSGCIARTVSSPNQHLLRTDDVISCCLDLSAPSISFRINGQPVQGMFENFNIDGLFFPVVSFSAGIKVRFLLGGRHGEFKFLPPPGYAPCYEAVLPKEKLKVEHSREYKQERTYTRDLLGPTVSLTQAAFTPIPVDTSQIVLPPHLERIREKLAENIHELWVMNKIELGWQYGP
notes: cardiac ryanodine receptor (RyR2), N-terminus, residues 1-906; species is stated for the full-length RyR2 cDNA (human), not for NT itself; also called NT^WT; source: HEK293, transiently transfected, in cell homogenate (cross-linking) or CHAPS-solubilized lysate (co-IP); not shown: cMyc, N-terminal, kept
On to B1, for which the binding result in experiment [4] and in experiment [5] was “binds” in each case.

B2: NT^(E173A + K174A) (RyR2 residues 1–906) (domain or fragment, human, UniProt Q92736 1-906, looked up)
chain: MADGGEGEDEIQFLRTDDEVVLQCTATIHKEQQKLCLAAEGFGNRLCFLESTSNSKNVPPDLSICTFVLEQSLSVRALQEMLANTVEKSEGQVDVEKWKFMMKTAQGGGHRTLLYGHAILLRHSYSGMYLCCLSTSRSSTDKLAFDVGLQEDTTGEACWWTIHPASKQRSEGAAVRVGDDLILVSVSSERYLHLSYGNGSLHVDAAFQQTLWSVAPISSGSEAAQGYLIGGDVLRLLHGHMDECLTVPSGEHGEEQRRTVHYEGGAVSVHARSLWRLETLRVAWSGSHIRWGQPFRLRHVTTGKYLSLMEDKNLLLMDKEKADVKSTAFTFRSSKEKLDVGVRKEVDGMGTSEIKYGDSVCYIQHVDTGLWLTYQSVDVKSVRMGSIQRKAIMHHEGHMDDGISLSRSQHEESRTARVIRSTVFLFNRFIRGLDALSKKAKASTVDLPIESVSLSLQDLIGYFHPPDEHLEHEDKQNRLRALKNRQNLFQEEGMINLVLECIDRLHVYSSAAHFADVAGREAGESWKSILNSLYELLAALIRGNRKNCAQFSGSLDWLISRLERLEASSGILEVLHCVLVESPEALNIIKEGHIKSIISLLDKHGRNHKVLDVLCSLCVCHGVAVRSNQHLICDNLLPGRDLLLQTRLVNHVSSMRPNIFLGVSEGSAQYKKWYYELMVDHTEPFVTAEATHLRVGWASTEGYSPYPGGGEEWGGNGVGDDLFSYGFDGLHLWSGCIARTVSSPNQHLLRTDDVISCCLDLSAPSISFRINGQPVQGMFENFNIDGLFFPVVSFSAGIKVRFLLGGRHGEFKFLPPPGYAPCYEAVLPKEKLKVEHSREYKQERTYTRDLLGPTVSLTQAAFTPIPVDTSQIVLPPHLERIREKLAENIHELWVMNKIELGWQYGP
notes: cardiac ryanodine receptor (RyR2), N-terminus, residues 1-906, double alanine substitution E173 + K174; negative control mutant; source: HEK293, transiently transfected, in cell homogenate; not shown: cMyc, N-terminal, kept
In the case of B2, the binding result in experiment [6] is given as “binds”.

B3: NT^(K167A + Q168A) (RyR2 residues 1–906) (domain or fragment, human, UniProt Q92736 1-906, looked up)
chain: MADGGEGEDEIQFLRTDDEVVLQCTATIHKEQQKLCLAAEGFGNRLCFLESTSNSKNVPPDLSICTFVLEQSLSVRALQEMLANTVEKSEGQVDVEKWKFMMKTAQGGGHRTLLYGHAILLRHSYSGMYLCCLSTSRSSTDKLAFDVGLQEDTTGEACWWTIHPASAARSEGEKVRVGDDLILVSVSSERYLHLSYGNGSLHVDAAFQQTLWSVAPISSGSEAAQGYLIGGDVLRLLHGHMDECLTVPSGEHGEEQRRTVHYEGGAVSVHARSLWRLETLRVAWSGSHIRWGQPFRLRHVTTGKYLSLMEDKNLLLMDKEKADVKSTAFTFRSSKEKLDVGVRKEVDGMGTSEIKYGDSVCYIQHVDTGLWLTYQSVDVKSVRMGSIQRKAIMHHEGHMDDGISLSRSQHEESRTARVIRSTVFLFNRFIRGLDALSKKAKASTVDLPIESVSLSLQDLIGYFHPPDEHLEHEDKQNRLRALKNRQNLFQEEGMINLVLECIDRLHVYSSAAHFADVAGREAGESWKSILNSLYELLAALIRGNRKNCAQFSGSLDWLISRLERLEASSGILEVLHCVLVESPEALNIIKEGHIKSIISLLDKHGRNHKVLDVLCSLCVCHGVAVRSNQHLICDNLLPGRDLLLQTRLVNHVSSMRPNIFLGVSEGSAQYKKWYYELMVDHTEPFVTAEATHLRVGWASTEGYSPYPGGGEEWGGNGVGDDLFSYGFDGLHLWSGCIARTVSSPNQHLLRTDDVISCCLDLSAPSISFRINGQPVQGMFENFNIDGLFFPVVSFSAGIKVRFLLGGRHGEFKFLPPPGYAPCYEAVLPKEKLKVEHSREYKQERTYTRDLLGPTVSLTQAAFTPIPVDTSQIVLPPHLERIREKLAENIHELWVMNKIELGWQYGP
notes: cardiac ryanodine receptor (RyR2), N-terminus, residues 1-906, double alanine substitution K167 + Q168; source: HEK293, transiently transfected, in cell homogenate; not shown: cMyc, N-terminal, kept
Turning to B3, the binding result in experiment [7] was “binds”.

B4: NT^R176Q (RyR2 residues 1–906 with the arrhythmia-linked R176Q mutation) (domain or fragment, human, UniProt Q92736 1-906, looked up)
chain: MADGGEGEDEIQFLRTDDEVVLQCTATIHKEQQKLCLAAEGFGNRLCFLESTSNSKNVPPDLSICTFVLEQSLSVRALQEMLANTVEKSEGQVDVEKWKFMMKTAQGGGHRTLLYGHAILLRHSYSGMYLCCLSTSRSSTDKLAFDVGLQEDTTGEACWWTIHPASKQRSEGEKVQVGDDLILVSVSSERYLHLSYGNGSLHVDAAFQQTLWSVAPISSGSEAAQGYLIGGDVLRLLHGHMDECLTVPSGEHGEEQRRTVHYEGGAVSVHARSLWRLETLRVAWSGSHIRWGQPFRLRHVTTGKYLSLMEDKNLLLMDKEKADVKSTAFTFRSSKEKLDVGVRKEVDGMGTSEIKYGDSVCYIQHVDTGLWLTYQSVDVKSVRMGSIQRKAIMHHEGHMDDGISLSRSQHEESRTARVIRSTVFLFNRFIRGLDALSKKAKASTVDLPIESVSLSLQDLIGYFHPPDEHLEHEDKQNRLRALKNRQNLFQEEGMINLVLECIDRLHVYSSAAHFADVAGREAGESWKSILNSLYELLAALIRGNRKNCAQFSGSLDWLISRLERLEASSGILEVLHCVLVESPEALNIIKEGHIKSIISLLDKHGRNHKVLDVLCSLCVCHGVAVRSNQHLICDNLLPGRDLLLQTRLVNHVSSMRPNIFLGVSEGSAQYKKWYYELMVDHTEPFVTAEATHLRVGWASTEGYSPYPGGGEEWGGNGVGDDLFSYGFDGLHLWSGCIARTVSSPNQHLLRTDDVISCCLDLSAPSISFRINGQPVQGMFENFNIDGLFFPVVSFSAGIKVRFLLGGRHGEFKFLPPPGYAPCYEAVLPKEKLKVEHSREYKQERTYTRDLLGPTVSLTQAAFTPIPVDTSQIVLPPHLERIREKLAENIHELWVMNKIELGWQYGP
notes: cardiac ryanodine receptor (RyR2), N-terminus, residues 1-906, with the disease-linked (ARVD2, CPVT) mutation R176Q; source: HEK293, transiently transfected, in cell homogenate (cross-linking) or CHAPS-solubilized lysate (co-IP); not shown: cMyc, N-terminal, kept
As to B4, in experiment [5], the binding entry was “binds”.

B5: NT^Δβ8–β9 (RyR2 residues 1–906, residues 167–178 removed) (domain or fragment, human, UniProt Q92736 1-906, looked up)
chain: MADGGEGEDEIQFLRTDDEVVLQCTATIHKEQQKLCLAAEGFGNRLCFLESTSNSKNVPPDLSICTFVLEQSLSVRALQEMLANTVEKSEGQVDVEKWKFMMKTAQGGGHRTLLYGHAILLRHSYSGMYLCCLSTSRSSTDKLAFDVGLQEDTTGEACWWTIHPASDDLILVSVSSERYLHLSYGNGSLHVDAAFQQTLWSVAPISSGSEAAQGYLIGGDVLRLLHGHMDECLTVPSGEHGEEQRRTVHYEGGAVSVHARSLWRLETLRVAWSGSHIRWGQPFRLRHVTTGKYLSLMEDKNLLLMDKEKADVKSTAFTFRSSKEKLDVGVRKEVDGMGTSEIKYGDSVCYIQHVDTGLWLTYQSVDVKSVRMGSIQRKAIMHHEGHMDDGISLSRSQHEESRTARVIRSTVFLFNRFIRGLDALSKKAKASTVDLPIESVSLSLQDLIGYFHPPDEHLEHEDKQNRLRALKNRQNLFQEEGMINLVLECIDRLHVYSSAAHFADVAGREAGESWKSILNSLYELLAALIRGNRKNCAQFSGSLDWLISRLERLEASSGILEVLHCVLVESPEALNIIKEGHIKSIISLLDKHGRNHKVLDVLCSLCVCHGVAVRSNQHLICDNLLPGRDLLLQTRLVNHVSSMRPNIFLGVSEGSAQYKKWYYELMVDHTEPFVTAEATHLRVGWASTEGYSPYPGGGEEWGGNGVGDDLFSYGFDGLHLWSGCIARTVSSPNQHLLRTDDVISCCLDLSAPSISFRINGQPVQGMFENFNIDGLFFPVVSFSAGIKVRFLLGGRHGEFKFLPPPGYAPCYEAVLPKEKLKVEHSREYKQERTYTRDLLGPTVSLTQAAFTPIPVDTSQIVLPPHLERIREKLAENIHELWVMNKIELGWQYGP
notes: also called β8–β9 loop deletion; source: HEK293, transiently transfected, in cell homogenate (cross-linking) or CHAPS-solubilized lysate (co-IP); not shown: cMyc, N-terminal, kept
Regarding B5, the binding entry in experiment [5] is given as “binds”.
